Measured values from article PMC8294330.
Results are given in words; binding and its absence hold for the method and conditions named.

Sequences of proteins named here, by UniProt entry; tags and fusion partners are left off.
UniProt P0A6X3: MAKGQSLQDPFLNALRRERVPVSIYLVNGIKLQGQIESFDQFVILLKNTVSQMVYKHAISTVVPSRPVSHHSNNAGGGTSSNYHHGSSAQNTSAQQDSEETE

Target: Escherichia coli RNA chaperone Hfq (Escherichia coli) (UniProt P0A6X3)
Assay: condition: 400 nM RNA, 400 nM Hfq hexamer, 1:1 and 1:3 RNA:PNPase trimer molar ratio; native gel or EMSA; 400 nM RNA (RyhB, 3'ETSleuZ or CyaR) with or without 400 nM Hfq hexamer, PNPase at 1:1 and 1:3 RNA:PNPase trimer; 20 mM Tris pH 7.5, 100 mM NaCl, 1 mM MgCl2, 1 mM DTT, 30°C 20 min; gel in tris-glycine pH 8.5; both purified

- binding: no binding
B1: PNPase S1x4 (PNPase R681A, Q682A, R684A, R686A) (enzyme, UniProt P05055 1-711)
chain: MLNPIVRKFQYGQHTVTLETGMMARQATAAVMVSMDDTAVFVTVVGQKKAKPGQDFFPLTVNYQERTYAAGRIPGSFFRREGRPSEGETLIARLIDRPIRPLFPEGFVNEVQVIATVVSVNPQVNPDIVAMIGASAALSLSGIPFNGPIGAARVGYINDQYVLNPTQDELKESKLDLVVAGTEAAVLMVESEAQLLSEDQMLGAVVFGHEQQQVVIQNINELVKEAGKPRWDWQPEPVNEALNARVAALAEARLSDAYRITDKQERYAQVDVIKSETIATLLAEDETLDENELGEILHAIEKNVVRSRVLAGEPRIDGREKDMIRGLDVRTGVLPRTHGSALFTRGETQALVTATLGTARDAQVLDELMGERTDTFLFHYNFPPYSVGETGMVGSPKRREIGHGRLAKRGVLAVMPDMDKFPYTVRVVSEITESNGSSSMASVCGASLALMDAGVPIKAAVAGIAMGLVKEGDNYVVLSDILGDEDHLGDMDFKVAGSRDGISALQMDIKIEGITKEIMQVALNQAKGARLHILGVMEQAINAPRGDISEFAPRIHTIKINPDKIKDVIGKGGSVIRALTEETGTTIEIEDDGTVKIAATDGEKAKHAIRRIEEITAEIEVGRVYTGKVTRIVDFGAFVAIGGGKEGLVHISQIADKRVEKVTDYLQMGQEVPVKVLEVDAAGAIALSIKEATEQSQPAAAPEAPAAEQGE
